Measurements from PubChem BioAssay AID485349 (National Center for Advancing Translational Sciences (NCATS), 2010).
Among all 320,000 compounds or so, about 620 (0.19%) were called active. This list was built around the results that the source calls inconclusive (neither active nor inactive); the mix of calls is not that of the screen. The call rests on the fitted dose curve; in most records, active means well fitted activation curve with a large enough effect; inconclusive means small, poorly fitted or top-dose-only effect; inactive means no such curve, though single readings can be large or run the other way. Where the call is inconclusive, the potency comes from a doubtful curve fit.
Potency means the concentration at half of the fitted maximal effect.

Experiment: qHTS Assay for Identifying a Potential Treatment of Ataxia-Telangiectasia; further: nearly all actives have a fitted effect of over 45% in size; on activation: % of control where 0% means no effect
Conditions: […] A-T fibroblasts, KAP-1 phosphorylation AlphaLISA, neocarzinostatin DNA damage 30 min before lysis; series mostly up to 57.5 µM; activation: at the top concentration
Procedure, shortened: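 hTERT-immortalized A-T patient fibroblasts ([…]), 500 cells/well in OPTI-MEM, 1% FBS, got compounds for 60 min, then NCS for 30 min at 37C. Lysates were then assayed for phospho-KAP-1 by AlphaLISA (anti-pKAP1 donor, anti-KAP1 acceptor beads), 6 hr at 25C.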
In the case of `On1nnc2ccccc21`, the Potency is reported as inconclusive: 1.26 µM [activator, full curve, poor fit]. In the case of `Cn1c(=O)oc2cc(S(=O)(=O)N3CCCC(C(=O)NC4CCCc5ccccc54)C3)ccc21` (stereo not drawn), the Potency is reported as inconclusive: 7.08 µM [activator, single point]. With `O=C(Nc1ccc(Cl)cn1)c1cc2c(s1)-c1ccccc1OC2` the Potency was active: 15.8 µM. In the case of `CC(C)CCNc1nc2c(c(=O)n(Cc3cccc(F)c3)c(=O)n2C)n1C`, the Potency is reported as inconclusive: 25.1 µM [activator, single point]. For `CC1CCN(C(=O)c2ccc([N+](=O)[O-])o2)CC1`, the “activation” value was inactive: 10.4%. In the case of `O=C(Nc1cccc(Br)c1)c1ccc2nc(N3C(=O)CCC3=O)sc2c1`, the Potency is reported as inconclusive: 35.5 µM [activator, single point]. With `O=C(C1CCCO1)N1CCN(Cc2c(O)ccc3ccccc23)CC1` (stereo not drawn) the “activation” value was inactive: -2%. With `Cc1cc(NC(=O)c2cccc(Br)c2)n[nH]1` the Potency was inconclusive: 28.2 µM [activator, single point]. For `CC1CC(C)CN(CCCNC(=O)c2cn(C)c3ccc(S(=O)(=O)N4CCCC4)cc3c2=O)C1` (stereo not drawn), the Potency was active: 39.8 µM. For `CCN(C(=O)c1cc2c(=O)n3ccccc3nc2n1C)C1CCCCC1`, the Potency was inconclusive: 31.6 µM [activator, partial curve, poor fit]. With `Cc1cc(C)n2c(SCc3ccc(Br)cc3)nnc2n1` the Potency was active: 3.55 µM. With `O=C1OCCN1C(=O)[C@H]1[C@H](c2ccc(Cl)cc2)C(c2cccc(Cl)c2)=NN1c1ccccc1` the Potency was active: 35.5 µM. With `O=C1/C(=C\c2cccc(O)c2)SC(=S)N1Cc1ccccc1` the Potency was inconclusive: 22.4 µM [activator, single point]. In the case of `C=CC[N+](C)(C)CCCNC(=O)/C=N/O`, the Potency is reported as inconclusive: 25.1 µM [activator, partial curve, poor fit]. In the case of `O=C(NCc1ccc(Cl)cc1)C1CCCN(S(=O)(=O)c2cnc[nH]2)C1` (stereo not drawn), the Potency is reported as inconclusive: 3.98 µM [activator, partial curve]. For `O=C(O)C1CCN(c2nc(-c3ccccc3)c3cc(Br)ccc3n2)CC1`, the Potency was inconclusive: 5.01 µM [activator, single point]. In the case of `O=C(Nc1ccc2nc[nH]c2c1)c1ccco1`, the Potency is reported as inconclusive: 0.631 µM [activator, partial curve, poor fit]. In the case of `Cn1c(-c2ccccc2)nc2cnccc21`, the Potency is reported as active: 20 µM. With `Oc1ccc(CNc2ccc(F)cc2)c2cccnc12` the “activation” value was inactive: -3.43%. With `Cc1[nH]nc2c1C(CC(C)C)C(C#N)=C(N)O2` (stereo not drawn) the Potency was inconclusive: 39.8 µM [activator, single point]. With `COc1cc2c(cc1OC)[C@@H](NC(=O)CCc1ccccc1)[C@H](OCc1ccccc1)C2` the “activation” value was inactive: 10.7%. With `Cn1c(SCC(=O)N2c3ccccc3Sc3ccc(Cl)cc32)nnc1-c1ccco1` the “activation” value was inactive: 1.77%. With `COc1ccccc1N(CC(=O)NCCSCc1ccc(C)cc1)S(=O)(=O)c1ccccc1` the Potency was inconclusive: 4.47 µM [activator, single point]. With `CCOC(=O)N1CCN(CC(=O)N2c3ccccc3Sc3ccccc32)CC1` the Potency was active: 17.8 µM. In the case of `CCOc1ccccc1Nc1cc2n(c(=O)n1)CCc1cc(OC)c(OC)cc1-2`, the Potency is reported as inconclusive: 8.91 µM [activator, partial curve]. For `CCCCC(=O)NC(=S)Nc1cccc(Cl)c1N1CCCCC1`, the Potency was inconclusive: 35.5 µM [activator, single point]. With `O=C1C(CSCc2ccccc2)NC(=S)N1c1ccccc1` (stereo not drawn) the Potency was active: 35.5 µM. In the case of `CN1CCN(C(=S)c2ccc(N(C)C)cc2)CC1`, the “activation” value is reported as inactive: -1.63%. For `COc1ccc(-c2cc(C(=O)Nc3cccc(Cl)c3)no2)cc1`, the Potency was active: 10 µM. For `COC(=O)C1=CN(C(C)C)C=C(C(=O)OC)C1c1cc(Br)c(OC)c(OC)c1`, the Potency was active: 20 µM. With `CCCc1[nH]c2ccc(C(=O)OC)cc2c1CCC` the Potency was inconclusive: 25.1 µM [activator, single point]. For `COCCNC(=O)c1c(N)n(CCCn2ccnc2)c2nc3ccccc3nc12`, the Potency was inconclusive: 28.2 µM [activator, partial curve]. With `O=C(COc1coc(CN2CCN(c3ccccc3)CC2)cc1=O)Nc1ccc(F)cc1` the Potency was inconclusive: 0.708 µM [activator, full curve]. With `Cc1cc(NC(=O)Cn2nc([N+](=O)[O-])c(Br)c2C)no1` the “activation” value was inactive: 0.665%. With `c1ccc(-c2nc(-c3nccc4ccccc34)oc2-c2ccccc2)cc1` the “activation” value was inactive: 27.2%. In the case of `Cc1ccc(NC(=S)N2CCCC2)cc1Cl`, the “activation” value is reported as inactive: 5.77%. With `Cc1cccc(C)c1NC(=O)C(Cl)C(=O)c1ccccc1` (stereo not drawn) the Potency was inconclusive: 35.5 µM [activator, single point]. With `O=C(OCCN1CCOCC1)c1ccc(O)cc1` the Potency was inconclusive: 31.6 µM [activator, partial curve]. With `O=C1C=C(N(CCO)Cc2ccccc2)c2ccccc2C1=O` the Potency was inconclusive: 3.98 µM [activator, full curve, poor fit]. With `Cc1ccc2c(c1)C(=O)CC1(CCCCCC1)O2` the Potency was inconclusive: 31.6 µM [activator, single point]. With `N/C(=N\OC(=O)c1ccco1)c1cccc(Br)c1` the “activation” value was inactive: 3.95%. For `Cc1ccc(CN2CC[C@H]3C=CCc4cccc(c43)C2)cc1`, the Potency was inconclusive: 39.8 µM [activator, single point]. In the case of `CC(C)COC(=O)c1cccc2c1-c1ccccc1/C2=N\O`, the Potency is reported as inconclusive: 39.8 µM [activator, single point]. For `COc1ccccc1N1CCN(C(=O)c2ccccc2SCC(=O)N2CCCC2)CC1`, the Potency was inconclusive: 8.91 µM [activator, partial curve]. For `COc1ccc2nc(C)cc(Sc3nc4ccccc4s3)c2c1`, the Potency was active: 22.4 µM. For `O=C(NCCC1=CCCCC1)c1cc(COc2c(F)cccc2F)on1`, the “activation” value was inactive: 6.71%. With `CC1=C(C(=O)OCc2ccccc2)C(c2cccc([N+](=O)[O-])c2)NC(=O)N1C` (stereo not drawn) the Potency was inconclusive: 10 µM [activator, partial curve, poor fit]. In the case of `Oc1ccc(-c2nccc(-c3ccc(F)cc3)n2)cc1`, the Potency is reported as inconclusive: 0.631 µM [activator, full curve, poor fit].
